# Values quoted from earlier work as cited in publication PMC5026600 (ACS chemical biology, 2016).
# Target: EryK
# Details: binding to EryK; cited from earlier work
structure (smiles),measurement,value
Clc1ccccc1C(c1ccccc1)(c1ccccc1)n1ccnc1 [clotrimazole],Kd,< 10 nM
